Some results were stated once for a whole list of compounds, not compound by compound. At least one compound was matched to its structure with a doubt left.
Columns and labels:
Type in all cases: in vivo
[1] = tested on: ECHCG (Echinocloa crus-galli); assay: Greenhouse post-emergence test, test series 1, ECHCG; details: application rate 62.5 g/ha, scale 0 to 100 (100 = complete destruction, 0 = no damage)
Source text: (§1) The seeds of the test plants were sown separately for each species. For the pre-emergence treatment, the active ingredients, which had been suspended or emulsified in water, were applied directly after sowing by means of finely distributing nozzles. The containers were irrigated gently to promote germination and growth and subsequently covered with transparent plastic hoods until the plants had rooted. This cover caused uniform germination of the test plants, unless this had been impaired by the active ingredients. For the post-emergence treatment, the test plants were first grown to a height of 3 to 15 cm, depending on the plant habit, and only then treated with the active ingredients which had been suspended or emulsified in water. For this purpose, the test plants were either sown directly and grown in the same containers, or they were first grown separately as seedlings and transplanted into the test containers a few days prior to treatment. Depending on the species, the plants were kept at 10-25° C. or 20-25° C., respectively. The test period extended over 2 to 4 weeks. During this time, the plants were tended, and their response to the individual treatments was evaluated. Evaluation was carried out using a scale from 0 to 100. 100 means no emergence of the plants, or complete destruction of at least the aerial moieties, and 0 means no damage, or normal course of growth. A good herbicidal activity is given at values of at least 70 and a very good herbicidal activity is given at values of at least 85. Test Series 1: At an application rate of 62.5 g/ha the following compounds were tested in post-emergence tests against: ECHCG (Echinocloa crus-galli)

[2] = tested on: CHEAL (Chenopodium album); assay: Greenhouse post-emergence test, test series 1, CHEAL; details: application rate 62.5 g/ha, scale 0 to 100 (100 = complete destruction, 0 = no damage)
Source text: as §1, with “CHEAL (Chenopodium album)” for “ECHCG (Echinocloa crus-galli)”

[3] = tested on: AVEFA (Avena fatua); assay: Greenhouse post-emergence test, test series 1, AVEFA; details: application rate 62.5 g/ha, scale 0 to 100 (100 = complete destruction, 0 = no damage)
Source text: as §1, with “AVEFA (Avena fatua)” for “ECHCG (Echinocloa crus-galli)”

[4] = tested on: ALOMY (Alopecurus myosuroiedes); assay: Greenhouse pre-emergence test, test series 2, ALOMY; details: application rate 125 g/ha, scale 0 to 100 (100 = no emergence, 0 = no damage)
Source text: as §1, with “Series 2:” for “Series 1:”, “of 125” for “of 62.5”, “in pre-emergence” for “in post-emergence”, “tests against ALOMY (Alopecurus myosuroiedes)” for “tests against: ECHCG (Echinocloa crus-galli)”

[5] = tested on: SETFA (Setaria faberi); assay: Greenhouse pre-emergence test, test series 2, SETFA; details: application rate 125 g/ha, scale 0 to 100 (100 = no emergence, 0 = no damage)
Source text: as §1, with “Series 2:” for “Series 1:”, “of 125” for “of 62.5”, “in pre-emergence” for “in post-emergence”, “tests against SETFA (Setaria faberi)” for “tests against: ECHCG (Echinocloa crus-galli)”

[6] = tested on: ALOMY (Alopecurus myosuroiedes); assay: Greenhouse post-emergence test, test series 1, ALOMY; details: application rate 62.5 g/ha, scale 0 to 100 (100 = complete destruction, 0 = no damage)
Source text: as §1, with “ALOMY (Alopecurus myosuroiedes)” for “ECHCG (Echinocloa crus-galli)”

[7] = tested on: AMARE (Amaranthus retroflexus); assay: Greenhouse post-emergence test, test series 1, AMARE; details: application rate 62.5 g/ha, scale 0 to 100 (100 = complete destruction, 0 = no damage)
Source text: as §1, with “AMARE (Amaranthus retroflexus)” for “ECHCG (Echinocloa crus-galli)”

CCN(CC(F)(F)F)C(=O)Nc1c(Br)cc(F)c(C(=O)Nc2nnnn2C)c1Cl [Example 17, 4-bromo-2-chloro-6-fluoro-N-(1-methyltetrazol-5-yl)-3-[[ethyl(2,2,2-trifluoroethyl)-carbamoyl]amino]benzamide]
> 85%: control of ECHCG [1] | control of CHEAL [2] | control of AVEFA [3] | control of ALOMY [4] | control of SETFA [5] | control of ALOMY [6] | control of AMARE [7]

Cc1c(NC(=O)N(CC(F)(F)F)C(C)C)c(Br)cc(F)c1C(=O)Nc1nnnn1C [Example 5]
> 85%: control of ECHCG [1] | control of CHEAL [2] | control of AVEFA [3] | control of ALOMY [4] | control of ALOMY [6] | control of AMARE [7]

CC(C)N(CC(F)(F)F)C(=O)Nc1c(Br)cc(F)c(C(=O)Nc2nnnn2C)c1Cl [Example 15]
> 85%: control of ECHCG [1] | control of CHEAL [2] | control of AVEFA [3] | control of ALOMY [4] | control of SETFA [5] | control of ALOMY [6] | control of AMARE [7]

CCCN(CC(F)(F)F)C(=O)Nc1c(Br)cc(F)c(C(=O)Nc2nnnn2C)c1C [Example 4]
> 85%: control of ECHCG [1] | control of CHEAL [2] | control of AVEFA [3] | control of AMARE [7]

CCCN(CC(F)(F)F)C(=O)Nc1c(Cl)cc(F)c(C(=O)Nc2nnnn2C)c1Cl [Example 11]
> 85%: control of ECHCG [1] | control of CHEAL [2] | control of AVEFA [3] | control of ALOMY [4] | control of SETFA [5] | control of AMARE [7]

CN(CC(F)(F)F)C(=O)Nc1c(Br)cc(F)c(C(=O)Nc2nnnn2C)c1Cl [Example 16]
> 85%: control of ECHCG [1] | control of CHEAL [2] | control of AVEFA [3] | control of ALOMY [4] | control of SETFA [5] | control of ALOMY [6] | control of AMARE [7]
